Binding data for three molecules are collected here from article PMC12673148, “Structural basis of protease-activated receptor 2 activation and biased agonism” (Cell Discovery, 2025).

Sequences of proteins named here, by UniProt entry; tags and fusion partners are left off. A change or cut given only in a name is not applied to a line headed by its entry. A line that says so, or that is headed by a name, gives the form on record, which may keep a tag or linker. Residues count along the entry.
UniProt P55085: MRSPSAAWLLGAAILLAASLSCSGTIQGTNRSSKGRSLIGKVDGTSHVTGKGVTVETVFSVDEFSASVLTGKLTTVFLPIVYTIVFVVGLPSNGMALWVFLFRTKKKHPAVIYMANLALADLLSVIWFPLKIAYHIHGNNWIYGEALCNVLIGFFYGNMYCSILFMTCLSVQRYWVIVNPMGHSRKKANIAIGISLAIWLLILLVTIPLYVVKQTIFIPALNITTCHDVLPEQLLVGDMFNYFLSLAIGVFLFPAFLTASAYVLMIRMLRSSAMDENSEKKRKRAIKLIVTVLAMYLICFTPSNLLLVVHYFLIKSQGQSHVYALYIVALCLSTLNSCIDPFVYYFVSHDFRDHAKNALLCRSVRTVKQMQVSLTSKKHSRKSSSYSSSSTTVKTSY
PAR2 (residues 37–377) with LgBiT fused to the C-terminus: residues 37-377 of P55085
WT PAR2 (Δ1–48) fused with cpVenus to its C-terminus: residues 49-397 of P55085
UniProt Q14344: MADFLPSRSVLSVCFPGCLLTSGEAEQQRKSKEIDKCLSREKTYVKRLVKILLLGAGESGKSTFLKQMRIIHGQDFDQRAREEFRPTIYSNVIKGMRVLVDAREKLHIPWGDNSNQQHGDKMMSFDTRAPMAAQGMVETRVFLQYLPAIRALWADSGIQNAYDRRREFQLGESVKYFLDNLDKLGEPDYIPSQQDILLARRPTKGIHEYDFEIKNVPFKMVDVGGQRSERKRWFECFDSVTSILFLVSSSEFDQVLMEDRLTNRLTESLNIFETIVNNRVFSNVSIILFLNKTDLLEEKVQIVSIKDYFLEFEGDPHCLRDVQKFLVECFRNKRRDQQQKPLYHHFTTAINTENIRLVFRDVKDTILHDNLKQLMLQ
UniProt P50148: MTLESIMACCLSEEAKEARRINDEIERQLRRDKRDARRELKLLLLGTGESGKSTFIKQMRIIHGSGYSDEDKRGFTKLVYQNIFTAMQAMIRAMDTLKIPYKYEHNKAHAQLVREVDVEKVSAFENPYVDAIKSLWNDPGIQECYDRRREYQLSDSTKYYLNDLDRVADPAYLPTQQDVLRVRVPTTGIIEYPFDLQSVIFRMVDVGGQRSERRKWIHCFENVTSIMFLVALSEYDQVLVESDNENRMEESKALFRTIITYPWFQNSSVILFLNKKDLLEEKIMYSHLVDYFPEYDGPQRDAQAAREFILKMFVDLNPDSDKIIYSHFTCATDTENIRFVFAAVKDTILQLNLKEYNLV

Results are given in words; binding and its absence hold for the method and conditions named. For part of these data: Binding seen in cells or lysates may run through a third protein. Some entries that bind do so weakly or less than the wild type.

The target in assay [1] is WT PAR2 (Δ1–48) fused with cpVenus to its C-terminus (human) (UniProt P55085). The experiment in a line: FRET or BRET; BRET0 Gα recruitment assay in AD293 cells transfected with PAR2 (Δ1–48)-cpVenus, Gα-Nluc, Gβ and Gγ; signal after addition of the TL ligand; ratio 535 nm/450 nm.
In assay [2] the target is PAR2 (residues 37–377) with LgBiT fused to the C-terminus (human) (UniProt P55085). The experiment in a line: cryo-EM structure; single-particle cryo-EM of PAR2/G protein complexes coexpressed in Sf9 with NanoBiT tethering (PAR2-LgBiT, Gβ1-HiBiT), solubilised in LMNG/CHS; 20 mM HEPES pH 7.5, 150 mM NaCl, LMNG/GDN/CHS; Nb35 added to the Gq complex, scFv16 coexpressed for the G13 complex; both purified. A general note: With HiBiT, luminescence reflects the tagged protein that the partner subunit can reach.

For Gα13-Nluc (from UniProt Q14344 1-377), in assay [1], the binding result is listed as “binds”.
As to Gαq-Nluc (from UniProt P50148 1-359), the binding entry in assay [1] is reported as “binds”.
With SLIGKV [tethered ligand (TL) of PAR2, residues 37–42], in assay [2], the binding entry was “binds”.
